Assay results: PMC9573667, “Efficient Oxidative Dearomatisations of Substituted Phenols Using Hypervalent Iodine (III) Reagents and Antiprotozoal Evaluation of the Resulting Cyclohexadienones against T. b. rhodesiense and P. falciparum Strain NF54” (Molecules, 2022)

Experiments:
[1] = test system: P. falciparum, strain NF54, erythrocytic stages; test: In vitro growth inhibition assay of Plasmodium falciparum NF54 ([3H]-hypoxanthine incorporation); type: cell-based; details: L6 vs P. falciparum NF54
Description: Antimalarial activity was determined in vitro against the erythrocytic stages of P. falciparum using the drug-sensitive strain NF54. Parasite proliferation was assessed by incorporation of [^3H]-hypoxanthine using a modified version of [75]; for details, please refer to the Supplementary Materials. The positive control was chloroquine.
1. Experimental of biological testing
1.1 In vitro growth inhibition assay of Plasmodium falciparum NF54
Plasmodium falciparum, strain NF54, erythrocytic stages, and the standard drug, chloroquine, were used for the assay. The parasite cultures incubated in RPMI 1640 medium with 5% AlbuMAXTM (without hypoxanthine) were exposed to serial drug dilutions in microtiter plates. After 48 h of incubation at 37 °C in a reduced oxygen atmosphere, 0.5 μCi [3H]-hypoxanthine was added to each well of the plate. Cultures were incubated for a further 24 h before they were harvested onto glass-fiber filters and washed with distilled water. The radioactivity was counted using a BetaplateTM liquid scintillation […]
counter (Wallac, Zurich). […]
concentration and expressed as percentage of the untreated controls. IC50 values were calculated from the sigmoidal inhibition curves using Microsoft Excel. Chloroquine was used as control. […]

[2] = test system: T. brucei rhodesiense, strain STIB900 trypomastigote forms; test: In vitro growth inhibition assay of Trypanosoma brucei rhodesiense STIB900 (Alamar blue); type: cell-based; details: L6 vs T. b. rhodesiense STIB900
Description: Trypanocidal activity was determined in vitro against axenically grown bloodstream-forms of T. b. rhodesiense STIB900 as described in Refs. [76, 77] and detailed in the Supplementary Materials. Parasite proliferation was assessed via fluorescence of the redox-sensitive dye resazurin (Alamar blue). The drug melarsoprol was used as the positive control. […]
1.2 In vitro growth inhibition assay of Trypanosoma brucei rhodesiense
Trypanosoma brucei rhodesiense, STIB 900 strain, and the standard drug, melarsoprol, were used for the assay. Minimum Essential Medium (50 μL) supplemented with 25 mM HEPES, 1g/L additional glucose, 1% MEM non-essential amino acids (100x), 0.2 mM 2-mercaptoethanol, 1 mM Na-pyruvate and 15% heat-inactivated horse serum was added to each well of a 96-well microtiter plate. Serial drug dilutions of 11 three-fold dilution steps covering a range from 100 to 0.002 μg/mL were prepared. Then […]
mL double-distilled water) was then added to each well and incubation continued for a further 2–4 h.
Then, the plates were read with a Spectramax Gemini XS microplate fluorometer (Molecular Devices Cooperation, Sunnyvale, CA, USA) using an excitation wavelength of 536 nm and an emission wavelength of 588 nm. The IC50 values were calculated from the sigmoidal inhibition curves using the microplate reader software Softmax Pro (Molecular Devices Cooperation, Sunnyvale, CA, USA). […]

SMILES	SI (IC50 in L6 cells/IC50 in P. falciparum) [1]	SI (IC50 in L6 cells/IC50 in T. b. rhodesiense) [2]
CCN(CC)CCCC(C)Nc1ccnc2cc(Cl)ccc12 (centres unmarked) [Chl., chloroquine, reference compound]	45,500	–
Nc1nc(N)nc(Nc2ccc([As]3SCC(CO)S3)cc2)n1 (centres unmarked) [Mel., melarsoprol, reference compound]	–	6050
